The test has as its system MDA-MB-231 human breast cancer cells. Nature of the test: MTT assay for antiproliferative effects in MDA-MB-231. Type of test: cell-based. Conditions: MDA-MB-231, MTT assay. The procedure: The human breast carcinoma cell line, MCF-7, was purchased from the European Collection of Animal Cell Cultures (ECACC). The cells were maintained in MCF-7 complete medium; consisting of Eagle’s Minimum Essential Medium (MEM) supplemented with 10% (v/v) Foetal Bovine Serum (FBS), 2 mM L-glutamine, 100 μg/mL penicillin/streptomycin and 1% (v/v) non-essential amino acids. Cell cultures were maintained at 37 °C under a humidified atmosphere of 5% CO2/95% O2. The human breast carcinoma cell line, MDA, was purchased from the European Collection of Animal Cell Cultures (ECACC). The cells were maintained in MDA complete medium; consisting of Dulbecco’s Modified Eagle’s Medium (D-MEM) supplemented with 10% (v/v) Foetal Bovine Serum (FBS), 2 mM L-glutamine, 100 μg/mL penicillin/streptomycin. Cell cultures were maintained at 37 °C under a humidified atmosphere of 5% CO2/95% O2. The MTT assay was performed according to the reported protocol. The tetrazolium salt, 3-(4,5-dimethylthiazol-2-yl)-2,5-diphenyltetrazolium bromide (MTT) is taken up only by metabolically active cells and cleaved to form a formazan dye by mitochondrial dehydrogenases. Assays where repeated in three experiments performed in triplicate (unless otherwise stated) and reported results represent the mean value ± standard error mean. […]

Consider `CC/C(=C(\c1ccccc1)c1ccc(OCCN(C)C)cc1)c1ccccc1` [Tamoxifen, reference compound], for which the IC50 (in general, the midpoint of a concentration-inhibition curve) turned out to be 20 µM.

Values taken from article PMC5344255, “Design, Synthesis and Biochemical Evaluation of Novel Selective Estrogen Receptor Ligand Conjugates Incorporating an Endoxifen-Combretastatin Hybrid Scaffold” (Biomedicines, 2016).
